# Reference: PMC5601625, “Defining a therapeutic window for kinase inhibitors in leukemia to avoid neutropenia” (Oncotarget, 2017)
# Assays:
# Assay in all cases: Cell Titer Glo cell viability assay, 48 h
# Assay type in all cases: cell-based
# EOL-1 = details: Homo sapiens, EOL1, 48 h, read-out: IC50 of inhibitors on cell lines, m (mean)
# Protocol: (§1) The activity of the kinase inhibitor collection against a panel of human leukemia cell lines was determined in cell viability assays run over 48 h using the Cell Titer Glo reagent.
# (§2) Figure 1 Effects of kinase inhibition on the proliferation of leukemia cells A. Human leukemia cell lines were treated with duplicate serial dilutions of kinase inhibitors and the effect on cell viability was determined by Cell Titer Glo assay after 48 hours. […] HL-60 cells were treated with serial dilutions of mTor/PI3K B. and MEK C. inhibitors and the effect on cell viability was determined after 48 hours. Data shown is the mean ± SEM of 3 independent experiments.
# (§3) Leukemia and lymphoma cell lines were grown in RPMI containing 10% FCS. […] Cell lines are routinely tested for mycoplasma and genotyped by short tandem repeating (STR) profiling to confirm identity.
# (§4) Compounds were obtained from SynMedChem and dissolved at […] in DMSO. Serial 2-fold dilutions of each compound were prepared in DMSO using a liquid handling robot (Janus, Perkin Elmer). Each dilution (100nL) was transferred to duplicate tissue culture plates containing 50 μL of media containing 5 × 10^3 cells using a 384 well pin tool. Cells were incubated for 48 h and cell viability was determined using Cell Titer Glow reagents as described by the manufacturer (Promega). Data was acquired using a luminescent plate reader (Envision, Perkin Elmer) and analysed using Activity Base (IDBS, Guilford, UK) and visualised using Spotfire (TIBCO, Palo Alto, CA) as described previously. Each cell line was assayed in independent experiments on at least two occasions. […] Serial 2-fold dilutions of each compound were prepared in media containing 0.2% DMSO and 50 μl of each dilution was added to 10^4 cells in 50 μl of media. Cells were incubated for 48 h and cell viability was determined using Cell Titer Glow assay as described above.
# HEL.92.1.7 = details: Homo sapiens, HEL 92.1.7, 48 h, read-out: IC50 of inhibitors on cell lines, m (mean)
# Protocol: as §1, §2, §3, §4
# HL-60 = details: Homo sapiens, HL-60, 48 h, read-out: IC50 of inhibitors on cell lines, m (mean)
# Protocol: as §1, §2, §3, §4
# JURKAT = details: Homo sapiens, read-out: IC50 of inhibitors on cell lines, m (mean)
# Protocol: as §1, §2, §3, §4
# K562 = details: Homo sapiens, K562, 48 h, read-out: IC50 of inhibitors on cell lines, m (mean)
# Protocol: as §1, §2, §3, §4
# KU-812 = details: Homo sapiens, KU812, 48 h, read-out: IC50 of inhibitors on cell lines, m (mean)
# Protocol: as §1, §2, §3, §4
# MEG-01 = details: Homo sapiens, MEG-01, 48 h, read-out: IC50 of inhibitors on cell lines, m (mean)
# Protocol: as §1, §2, §3, §4
# MOLT4 = details: Homo sapiens, MOLT-4, 48 h, read-out: IC50 of inhibitors on cell lines, m (mean)
# Protocol: as §1, §2, §3, §4
# MV4;11 = details: Homo sapiens, MV4-11, 48 h, read-out: IC50 of inhibitors on cell lines, m (mean)
# Protocol: as §1, §2, §3, §4
# OCI-AML3 = details: Homo sapiens, OCI-AML-3, 48 h, read-out: IC50 of inhibitors on cell lines, m (mean)
# Protocol: as §1, §2, §3, §4
# THP-1 = details: Homo sapiens, THP-1, 48 h, read-out: IC50 of inhibitors on cell lines, m (mean)
# Protocol: as §1, §2, §3, §4
# U937 = details: Homo sapiens, U-937, 48 h, read-out: IC50 of inhibitors on cell lines, m (mean)
# Protocol: as §1, §2, §3, §4
structure (smiles),measurement,setting,value
C[S+]([O-])c1ccc(-c2nc(-c3ccncc3)c(-c3ccc(F)cc3)[nH]2)cc1 (stereo not drawn) [SB203580],IC50,EOL-1,1.45 µM
same,IC50,HEL.92.1.7,> 10 µM
same,IC50,HL-60,> 10 µM
same,IC50,JURKAT,> 10 µM
same,IC50,K562,> 10 µM
same,IC50,KU-812,> 10 µM
same,IC50,MEG-01,> 10 µM
same,IC50,MOLT4,> 10 µM
same,IC50,MV4;11,> 10 µM
same,IC50,OCI-AML3,> 10 µM
same,IC50,THP-1,> 10 µM
same,IC50,U937,> 10 µM
